The source of these data is patent publication US8258134B2, “Pyridazinone glucokinase activators” (Hoffmann-La Roche Inc., priority 2008, dated 2012).

Structures are written as SMILES.

This test concerns the target T1, Recombinant human liver GK1 (GST-GK) (Homo sapiens, UniProt P35557).
T1 construct: made in house; host or cells: E. coli
T1 sequence (P35557 1-466 isoform P35557-2): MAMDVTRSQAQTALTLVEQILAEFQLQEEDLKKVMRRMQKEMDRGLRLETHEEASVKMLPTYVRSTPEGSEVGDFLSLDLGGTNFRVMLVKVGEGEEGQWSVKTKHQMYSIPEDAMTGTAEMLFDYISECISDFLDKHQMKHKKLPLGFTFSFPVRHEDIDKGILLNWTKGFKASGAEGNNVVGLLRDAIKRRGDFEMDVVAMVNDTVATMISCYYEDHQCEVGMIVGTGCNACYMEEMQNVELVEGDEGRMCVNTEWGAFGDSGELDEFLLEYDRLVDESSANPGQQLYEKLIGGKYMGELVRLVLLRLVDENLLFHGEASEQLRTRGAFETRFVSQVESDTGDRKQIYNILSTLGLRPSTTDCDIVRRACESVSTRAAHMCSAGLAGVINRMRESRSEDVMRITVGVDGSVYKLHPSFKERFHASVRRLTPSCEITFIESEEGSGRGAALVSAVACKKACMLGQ
Kind of test: Glucokinase in vitro assay (G6PDH-coupled NADH generation, OD340). The class given is biochemical. The conditions noted are these: 5 mM D-glucose, 30° C., pH 7.1, 10% DMSO. The protocol: Glucokinase In Vitro Assay Protocol: Glucokinase (GK) was assayed by coupling the production of glucose-6-phosphate to the generation of NADH with glucose-6-phosphate dehydrogenase (G6PDH, 0.75-1 k units/mg; Boehringer Mannheim, Indianapolis, Ind.) from Leuconostoc mesenteroides as the coupling enzyme (Scheme 2):
Recombinant human liver GK1 was expressed in E. coli as a glutathione S-transferase fusion protein (GST-GK) [Liang et al, 1995] and was purified by chromatography over a glutathione-Sepharose 4B affinity column using the procedure provided by the manufacturer (Amersham Pharmacia Biotech, Piscataway, N.J.).
The assay was conducted at 30° C. in a flat bottom 96-well tissue culture plate from Costar (Cambridge, Mass.) with a final incubation volume of 120 μL. […]
After addition of enzyme, the increase in optical density (OD) at 340 nm was monitored spectrophotometrically to determine the rate of change (OD340 per min). The GK activity (OD340/min) in control wells (10% DMSO minus GK activators) was compared with the activity in wells containing test GK activators, and the concentration of activator that produced a 50% increase in the activity of GK, i.e., the SC1.5, was calculated. […]

Turning to `COc1cnn(C(CC2CCCC2)C(=O)Nc2ccn(CC(C)(C)O)n2)c(=O)c1` (stereo not shown) [Example 81, 3-Cyclopentyl-N-[1-(2-hydroxy-2-methyl-propyl)-1H-pyrazol-3-yl]-2-(4-methoxy-6-oxo-6H-pyridazin-1-yl)-propionamide], the “SC1.5 average (concentration of activator that produced a 50% increase in the activity of GK)” value came out at 7.484 µM.
